According to patent US20060110388A1:
Results are given in words; binding and its absence hold for the method and conditions named. Some results given as binding are weak or reduced against the parent protein; the word gives no strength.

Amino acid sequences for entries named in this document (tags omitted). Residues count along the entry.
UniProt P05067, residues 672-711: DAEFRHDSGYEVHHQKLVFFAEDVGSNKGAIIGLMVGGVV

What follows are binders tested against amyloid beta peptide (Aβ), form not stated (UniProt P05067) (assay: screening: capture filter lift assay and capture ELISA).

Row | binding | Binder
1 | binds | A7 Fab (Fab, V domains shown) VH: EVQLLESGGGLVQPGGSLRLSCAASGFTFSRYSMSWVRQAPGKGLEWVSQISSVGNSTYYPDTVKGRFTISRDNSKNTLYLQMNSLRSEDTAVYYCAKGPYWGQGTLVTVSS VL: DVVMTQSPLSLPVTLGQPASISCRSSQSLIYSDGNAYLHWFQQRPGQSPRRLIYKVSNRFSGVPDRFSGSGSGTDFTLKISRVEAEDVGVYYCSQSTHVPWAFGGGTKVEIK
2 | binds | 3H2 Fab (Fab, V domains shown) VH: EVQLVESGGGLVKPGGSLRLSCAASGFTFSRYSMSWVRQAPGKGLEWVGQINSVGNSTYYPDAVKGRFTISRDDSKNTLYLQMNSLKTEDTAVYYCTTGDFWGQGTLVTVSS VL: DIVMTQTPLSLSVTPGQPASISCRSSQSLIYSDGNAYLHWYLQKPGQSPQLLIYKVSNRFSGVPDRFSGSGSGTDFTLKISRVEAEDVGVYYCSQSTHSPWTFGGGTKVEIK
3 | binds | 6D3 Fab (Fab, V domains shown) VH: EVQLVESGGGLVKPGGSLRLSCAASGFTFSRYSMSWVRQAPGKGLEWVGQINSRGNSTYYPDTVKGRFTISRDDSKNTLYLQMNSLKTEDTAVYYCTTGDFWGQGTLVTVSS VL: DIVMTQTPLSLSVTPGQPASISCRSSQSLIYSDGIAYLHWYLQKPGQSPQLLIYKVSNRFSGVPDRFSGSGSGTDFTLKISRVEAEDVGVYYCSQSTHSPWTFGGGTKVEIK
4 | binds | 7E1 Fab (Fab, V domains shown) VH: EVQLVESGGGLVKPGGSLRLSCAASGFTFSRYSMSWVRQAPGKGLEWVGQINSRGNSTYYPDTVKGRFTISRDDSKNTLYLQMNSLKTEDTAVYYCTTGDFWGQGTLVTVSS VL: DIVMTQTPLSLSVTPGQPASISCSSSQSLIYSDGNAYLHWYLQKPGQSPQLLIYKVSNRFSGVPDRFSGSGSGTDFTLKISRVEAEDVGVYYCSQSTHSPWTFGGGTKVEIK
5 | binds | 4D9 Fab (Fab, V domains shown) VH: EVQLVESGGGLVKPGGSLRLSCAASGFTFSRYSMSWVRQAPGKGLEWVGQINSRGNSTYYPDTVKGRFTISRDDSKNTLYLQMNSLKTEDTAVYYCTTGDFWGQGTLVTVSS VL: DIVMTQTPLSLSVTPGQPASISCRSSISLIYSDGNAYLHWYLQKPGQSPQLLIYKVSNRFSGVPDRFSGSGSGTDFTLKISRVEAEDVGVYYCSQSTHSPWTFGGGTKVEIK
6 | binds | 4D6 Fab (Fab, V domains shown) VH: EVQLVESGGGLVKPGGSLRLSCAASGFTFSRYSMSWVRQAPGKGLEWVGQINSRGNSTYYPDTVKGRFTISRDDSKNTLYLQMNSLKTEDTAVYYCTTGDFWGQGTLVTVSS VL: DIVMTQTPLSLSVTPGQPASISCRSNQSLIYSDGNAYLHWYLQKPGQSPQLLIYKVSNRFSGVPDRFSGSGSGTDFTLKISRVEAEDVGVYYCSQSTHSPWTFGGGTKVEIK
7 | binds | 6H8 Fab (Fab, V domains shown) VH: EVQLVESGGGLVKPGGSLRLSCAASGFTFSRYSMSWVRQAPGKGLEWVGQINSVGNSTYYPDEVKGRFTISRDDSKNTLYLQMNSLKTEDTAVYYCTTGDFWGQGTLVTVSS VL: DIVMTQTPLSLSVTPGQPASISCRSSQSLIYSDGNAYLHWYLQKPGQSPQLLIYKVSNRFSGVPDRFSGSGSGTDFTLKISRVEAEDVGVYYCSQSTHSPWTFGGGTKVEIK
8 | binds | 6F9 Fab (Fab, V domains shown) VH: EVQLVESGGGLVKPGGSLRLSCAASGFTFSRYSMSWVRQAPGKGLEWVGQINSRGNSTYYPDPVKGRFTISRDDSKNTLYLQMNSLKTEDTAVYYCTTGDFWGQGTLVTVSS VL: DIVMTQTPLSLSVTPGQPASISCRSSQSLIYSDGNAYLHWYLQKPGQSPQLLIYKVSNRFSGVPDRFSGSGSGTDFTLKISRVEAEDVGVYYCSQSTHSPWTFGGGTKVEIK
9 | binds | 6F6 Fab (Fab, V domains shown) VH: EVQLVESGGGLVKPGGSLRLSCAASGFTFSRYSMSWVRQAPGKGLEWVGQINSVGNSTYYPDTVTGRFTISRDDSKNTLYLQMNSLKTEDTAVYYCTTGDFWGQGTLVTVSS VL: DIVMTQTPLSLSVTPGQPASISCRSSQSLIYSDGNAYLHWYLQKPGQSPQLLIYKVSNRFSGVPDRFSGSGSGTDFTLKISRVEAEDVGVYYCSQSTHSPWTFGGGTKVEIK
10 | binds | 6E11 Fab (Fab, V domains shown) VH: EVQLVESGGGLVKPGGSLRLSCAASGFTFSRYSMSWVRQAPGKGLEWVGQINSRGNSTYYPDTVKGRFTISRDDSKNTLYLQMNSLKTEDTAVYYCTTGDFWGQGTLVTVSS VL: DIVMTQTPLSLSVTPGQPASISCRSSQSLIYSDGSAYLHWYLQKPGQSPQLLIYKVSNRFSGVPDRFSGSGSGTDFTLKISRVEAEDVGVYYCSQSTHSPWTFGGGTKVEIK
11 | binds | 6D4 Fab (Fab, V domains shown) VH: EVQLVESGGGLVKPGGSLRLSCAASGFTFSRYSMSWVRQAPGKGLEWVGQINSRGNSTYYPDTVKGRFTISRDDSKNTLYLQMNSLKTEDTAVYYCTTGDFWGQGTLVTVSS VL: DIVMTQTPLSLSVTPGQPASISCRSSQSLIYWDGNAYLHWYLQKPGQSPQLLIYKVSNRFSGVPDRFSGSGSGTDFTLKISRVEAEDVGVYYCSQSTHSPWTFGGGTKVEIK
12 | binds | 4F12 Fab (Fab, V domains shown) VH: EVQLVESGGGLVKPGGSLRLSCAASGFTFSRYSMSWVRQAPGKGLEWVGQINSRGNSTYYPDTVKGRFTISRDDSKNTLYLQMNSLKTEDTAVYYCTTGDFWGQGTLVTVSS VL: DIVMTQTPLSLSVTPGQPASISCRSSKSLIYSDGNAYLHWYLQKPGQSPQLLIYKVSNRFSGVPDRFSGSGSGTDFTLKISRVEAEDVGVYYCSQSTHSPWTFGGGTKVEIK
13 | binds | 4D1 Fab (Fab, V domains shown) VH: EVQLVESGGGLVKPGGSLRLSCAASGFTFSRYSMSWVRQAPGKGLEWVGQINSRGNSTYYPDTVKGRFTISRDDSKNTLYLQMNSLKTEDTAVYYCTTGDFWGQGTLVTVSS VL: DIVMTQTPLSLSVTPGQPASISCLSSQSLIYSDGNAYLHWYLQKPGQSPQLLIYKVSNRFSGVPDRFSGSGSGTDFTLKISRVEAEDVGVYYCSQSTHSPWTFGGGTKVEIK

The remaining lines, values behind:

Row | Binder | binding
14 | 1D4 Fab (Fab, V domains shown) VH: EVQLVESGGGLVKPGGSLRLSCAASGFTFSRYSMSWVRQAPGKGLEWVGQINSQGNSTYYPDTVKGRFTISRDDSKNTLYLQMNSLKTEDTAVYYCTTGDRWGQGTLVTVSS VL: DIVMTQTPLSLSVTPGQPASISCRSSQSLIYSDGNAYLHWYLQKPGQSPQLLIYKVSNRFSGVPDRFSGSGSGTDFTLKISRVEAEDVGVYYCSQSTHSPWTFGGGTKVEIK | binds
15 | 1B1 Fab (Fab, V domains shown) VH: EVQLVESGGGLVKPGGSLRLSCAASGFTFSRYSMSWVRQAPGKGLEWVGQINSRGNNTYYPDTVKGRFTISRDDSKNTLYLQMNSLKTEDTAVYYCTTGDFWGQGTLVTVSS VL: DIVMTQTPLSLSVTPGQPASISCRSSQSLIYSDGNAYLHWYLQKPGQSPQLLIYKVSNRFSGVPDRFSGSGSGTDFTLKISRVEAEDVGVYYCSQSTHSPWTFGGGTKVEIK | binds
16 | 2A11 Fab (Fab, V domains shown) VH: EVQLVESGGGLVKPGGSLRLSCAASGFTFSRYSMSWVRQAPGKGLEWVGQINSRGNRTYYPDTVKGRFTISRDDSKNTLYLQMNSLKTEDTAVYYCTTGDFWGQGTLVTVSS VL: DIVMTQTPLSLSVTPGQPASISCRSSQSLIYSDGNAYLHWYLQKPGQSPQLLIYKVSNRFSGVPDRFSGSGSGTDFTLKISRVEAEDVGVYYCSQSTHSPWTFGGGTKVEIK | binds
17 | 1B7 Fab (Fab, V domains shown) VH: EVQLVESGGGLVKPGGSLRLSCAASGFTFSRYSMSWVRQAPGKGLEWVGQINSRGNSTYYPDTVKGRFTISRDDSKNTLYLQMNSLKTEDTAVYYCTTGDFWGQGTLVTVSS VL: DIVMTQTPLSLSVTPGQPASISCRSSQSLIYSDGNAYLHWYLQKPGQSPQLLIYKVSNRFSGVPDRFSGSGSGTDFTLKISRVEAEDVGVYYCSQSTHSPWTFGGGTKVEIK | binds
18 | 3D12 Fab (Fab, V domains shown) VH: EVQLVESGGGLVKPGGSLRLSCAASGFTFSRYSMSWVRQAPGKGLEWVGQINSPGNSTYYPDTVKGRFTISRDDSKNTLYLQMNSLKTEDTAVYYCTTGDFWGQGTLVTVSS VL: DIVMTQTPLSLSVTPGQPASISCRSSQSLIYSDGNAYLHWYLQKPGQSPQLLIYKVSNRFSGVPDRFSGSGSGTDFTLKISRVEAEDVGVYYCSQSTHAPWTFGGGTKVEIK | binds
19 | 3H1 Fab (Fab, V domains shown) VH: EVQLVESGGGLVKPGGSLRLSCAASGFTFSRYSMSWVRQAPGKGLEWVGQINSVGNSTYYPDKVKGRFTISRDDSKNTLYLQMNSLKTEDTAVYYCTTGDFWGQGTLVTVSS VL: DIVMTQTPLSLSVTPGQPASISCRSSQSLIYSDGNAYLHWYLQKPGQSPQLLIYKVSNRFSGVPDRFSGSGSGTDFTLKISRVEAEDVGVYYCSQSTHSPWTFGGGTKVEIK | binds
20 | 3F9 Fab (Fab, V domains shown) VH: EVQLVESGGGLVKPGGSLRLSCAASGFTFSRYSMSWVRQAPGKGLEWVGQINSRGNSTYYPDTVKGRFTISRDDSKNTLYLQMNSLKTEDTAVYYCTTGDVWGQGTLVTVSS VL: DIVMTQTPLSLSVTPGQPASISCRSSQSLIYSDGNAYLHWYLQKPGQSPQLLIYKVSNRFSGVPDRFSGSGSGTDFTLKISRVEAEDVGVYYCSQSTHSPWTFGGGTKVEIK | binds
21 | 1A2 Fab (Fab, V domains shown) VH: EVQLVESGGGLVKPGGSLRLSCAASGFTFSRYSMSWVRQAPGKGLEWVGQINSRGNHTYYPDTVKGRFTISRDDSKNTLYLQMNSLKTEDTAVYYCTTGDFWGQGTLVTVSS VL: DIVMTQTPLSLSVTPGQPASISCRSSQSLIYSDGNAYLHWYLQKPGQSPQLLIYKVSNRFSGVPDRFSGSGSGTDFTLKISRVEAEDVGVYYCSQSTHSPWTFGGGTKVEIK | binds
22 | 2B2 Fab (Fab, V domains shown) VH: EVQLVESGGGLVKPGGSLRLSCAASGFTFSRYSMSWVRQAPGKGLEWVGQINIRGNSTYYPDTVKGRFTISRDDSKNTLYLQMNSLKTEDTAVYYCTTGDFWGQGTLVTVSS VL: DIVMTQTPLSLSVTPGQPASISCRSSQSLIYSDGNAYLHWYLQKPGQSPQLLIYKVSNRFSGVPDRFSGSGSGTDFTLKISRVEAEDVGVYYCSQSTHSPWTFGGGTKVEIK | binds
